Counter-ions that a name gives are not always drawn. This is one part of the list. The calls rarely recur for the same compound in another form.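 Kinases were expressed as nanoluciferase fusions in K562 cells and luminescence was read every 4 h between 2 and 18 h as percent of control, DMSO set to 100% and a positive control to 0%. A time point counts as decreased when the signal drops significantly (2 sigma). The hit call is the authors' own, does not follow from the count of time points alone, and its rule is not shown.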
Legend:
Test in all cases: kinase-Nluc reporter destabilization hit call (1 = scored as downregulated) (binary); higher = compound decreases kinase abundance
Conditions in all cases: K562, 2-18 h
ERN1 = ERN1 (UniProt O75460)
FGFR1 = FGFR1 (UniProt P11362)
FGFR2 = FGFR2 (UniProt P21802)
FGFR3 = FGFR3 (UniProt P22607)
FGR = FGR (UniProt P09769)
FLT3 = FLT3 (UniProt P36888)
FYN = FYN (UniProt P06241)
GSK3A = GSK3A (UniProt P49840)
HER2 = HER2 (UniProt P04626)
INSRR = INSRR (UniProt P14616)

Protein sequences, listed by entry. Tags and fused reporters are not part of them. Lines headed by an entry give the natural chain unless they say otherwise; changes in a name come on top.
UniProt O75460: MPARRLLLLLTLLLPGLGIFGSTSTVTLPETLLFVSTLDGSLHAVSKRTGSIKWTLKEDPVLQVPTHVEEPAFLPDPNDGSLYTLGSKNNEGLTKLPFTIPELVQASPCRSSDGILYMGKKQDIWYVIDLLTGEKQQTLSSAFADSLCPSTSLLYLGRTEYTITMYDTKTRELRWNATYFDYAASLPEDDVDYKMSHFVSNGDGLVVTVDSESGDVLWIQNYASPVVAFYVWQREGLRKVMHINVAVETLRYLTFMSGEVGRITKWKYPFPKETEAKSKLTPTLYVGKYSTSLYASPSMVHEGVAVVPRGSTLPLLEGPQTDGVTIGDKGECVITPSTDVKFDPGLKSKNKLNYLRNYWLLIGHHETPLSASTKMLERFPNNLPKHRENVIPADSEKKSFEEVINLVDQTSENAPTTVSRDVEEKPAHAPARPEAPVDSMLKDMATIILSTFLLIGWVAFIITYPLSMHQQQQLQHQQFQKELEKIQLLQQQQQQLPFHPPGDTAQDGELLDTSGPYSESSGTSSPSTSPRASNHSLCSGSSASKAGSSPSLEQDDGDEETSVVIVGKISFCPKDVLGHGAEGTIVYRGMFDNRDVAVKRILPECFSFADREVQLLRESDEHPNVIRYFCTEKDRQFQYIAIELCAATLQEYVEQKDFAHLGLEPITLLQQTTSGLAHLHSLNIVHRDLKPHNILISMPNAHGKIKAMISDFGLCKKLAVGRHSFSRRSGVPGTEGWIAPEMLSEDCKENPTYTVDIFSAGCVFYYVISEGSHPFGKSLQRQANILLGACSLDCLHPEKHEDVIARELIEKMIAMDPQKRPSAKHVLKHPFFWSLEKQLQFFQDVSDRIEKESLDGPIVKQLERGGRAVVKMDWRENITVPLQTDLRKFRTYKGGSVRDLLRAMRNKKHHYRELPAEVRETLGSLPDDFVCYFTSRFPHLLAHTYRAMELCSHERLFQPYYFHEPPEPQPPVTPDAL
UniProt P11362, whole entry, looked up: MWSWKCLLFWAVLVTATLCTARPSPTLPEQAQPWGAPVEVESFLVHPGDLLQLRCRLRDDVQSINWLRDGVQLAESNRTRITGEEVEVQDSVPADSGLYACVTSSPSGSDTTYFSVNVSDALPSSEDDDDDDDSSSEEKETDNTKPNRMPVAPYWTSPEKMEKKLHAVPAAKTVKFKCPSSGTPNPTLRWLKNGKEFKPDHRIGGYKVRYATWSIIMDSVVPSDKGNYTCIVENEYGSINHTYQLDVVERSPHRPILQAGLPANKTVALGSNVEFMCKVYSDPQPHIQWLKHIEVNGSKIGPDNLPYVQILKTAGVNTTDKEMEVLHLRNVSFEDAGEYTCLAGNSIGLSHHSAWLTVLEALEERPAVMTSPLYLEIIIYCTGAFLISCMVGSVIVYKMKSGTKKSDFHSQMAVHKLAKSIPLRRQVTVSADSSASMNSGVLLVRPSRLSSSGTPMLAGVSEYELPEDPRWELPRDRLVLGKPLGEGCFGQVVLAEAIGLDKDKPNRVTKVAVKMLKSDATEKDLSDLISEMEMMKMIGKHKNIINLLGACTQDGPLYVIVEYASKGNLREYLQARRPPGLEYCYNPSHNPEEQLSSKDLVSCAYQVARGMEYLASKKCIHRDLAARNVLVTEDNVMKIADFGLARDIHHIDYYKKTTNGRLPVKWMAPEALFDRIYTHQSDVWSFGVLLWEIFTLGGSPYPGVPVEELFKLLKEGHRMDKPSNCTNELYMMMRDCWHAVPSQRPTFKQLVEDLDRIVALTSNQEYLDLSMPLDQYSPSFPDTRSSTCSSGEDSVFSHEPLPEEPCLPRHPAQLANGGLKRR
UniProt P22607, whole entry, looked up: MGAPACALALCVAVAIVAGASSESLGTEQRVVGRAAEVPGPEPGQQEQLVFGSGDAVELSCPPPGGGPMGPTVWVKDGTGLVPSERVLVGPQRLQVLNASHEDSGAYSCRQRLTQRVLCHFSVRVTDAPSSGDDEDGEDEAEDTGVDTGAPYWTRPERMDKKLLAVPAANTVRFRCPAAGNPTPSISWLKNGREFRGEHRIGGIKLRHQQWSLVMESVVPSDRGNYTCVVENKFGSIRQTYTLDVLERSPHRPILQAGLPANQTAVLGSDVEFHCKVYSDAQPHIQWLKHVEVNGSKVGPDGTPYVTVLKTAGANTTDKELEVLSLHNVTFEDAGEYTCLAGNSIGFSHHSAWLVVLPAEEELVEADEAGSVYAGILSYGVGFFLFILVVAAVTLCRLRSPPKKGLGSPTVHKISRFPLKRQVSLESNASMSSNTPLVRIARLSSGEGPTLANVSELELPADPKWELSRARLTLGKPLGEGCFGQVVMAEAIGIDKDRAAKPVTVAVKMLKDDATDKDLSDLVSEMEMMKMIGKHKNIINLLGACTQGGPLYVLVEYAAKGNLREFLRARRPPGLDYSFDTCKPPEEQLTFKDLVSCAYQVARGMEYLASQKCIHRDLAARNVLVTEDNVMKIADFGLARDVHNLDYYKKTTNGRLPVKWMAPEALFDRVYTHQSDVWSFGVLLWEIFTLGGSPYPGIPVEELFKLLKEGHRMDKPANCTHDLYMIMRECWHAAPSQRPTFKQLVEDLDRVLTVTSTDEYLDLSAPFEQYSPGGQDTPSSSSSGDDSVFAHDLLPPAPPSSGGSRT
UniProt P36888, whole entry: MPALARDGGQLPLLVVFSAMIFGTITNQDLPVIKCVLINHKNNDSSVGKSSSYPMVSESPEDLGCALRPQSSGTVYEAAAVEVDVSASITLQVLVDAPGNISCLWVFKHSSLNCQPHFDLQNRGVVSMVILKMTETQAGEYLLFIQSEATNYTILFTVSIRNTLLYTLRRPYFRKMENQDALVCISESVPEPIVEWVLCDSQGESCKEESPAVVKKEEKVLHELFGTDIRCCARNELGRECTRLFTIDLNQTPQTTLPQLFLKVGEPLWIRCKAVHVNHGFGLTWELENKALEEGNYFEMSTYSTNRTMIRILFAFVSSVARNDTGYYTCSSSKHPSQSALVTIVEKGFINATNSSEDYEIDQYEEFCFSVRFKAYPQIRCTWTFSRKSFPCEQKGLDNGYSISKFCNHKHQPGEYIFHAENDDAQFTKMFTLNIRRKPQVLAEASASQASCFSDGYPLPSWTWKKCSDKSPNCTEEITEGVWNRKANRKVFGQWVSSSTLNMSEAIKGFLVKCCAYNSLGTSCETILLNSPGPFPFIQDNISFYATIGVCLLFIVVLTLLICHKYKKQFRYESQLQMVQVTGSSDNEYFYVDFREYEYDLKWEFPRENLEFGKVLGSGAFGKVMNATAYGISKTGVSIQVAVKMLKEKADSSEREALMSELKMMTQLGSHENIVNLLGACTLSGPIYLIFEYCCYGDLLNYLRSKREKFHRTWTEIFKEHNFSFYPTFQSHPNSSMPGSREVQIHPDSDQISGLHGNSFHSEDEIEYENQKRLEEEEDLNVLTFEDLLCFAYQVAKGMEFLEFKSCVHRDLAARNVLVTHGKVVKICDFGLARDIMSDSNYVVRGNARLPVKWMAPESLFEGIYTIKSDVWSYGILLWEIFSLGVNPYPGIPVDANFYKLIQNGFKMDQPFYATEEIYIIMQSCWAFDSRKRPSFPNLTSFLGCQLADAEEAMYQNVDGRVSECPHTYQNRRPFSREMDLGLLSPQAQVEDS
UniProt P06241, whole entry, looked up: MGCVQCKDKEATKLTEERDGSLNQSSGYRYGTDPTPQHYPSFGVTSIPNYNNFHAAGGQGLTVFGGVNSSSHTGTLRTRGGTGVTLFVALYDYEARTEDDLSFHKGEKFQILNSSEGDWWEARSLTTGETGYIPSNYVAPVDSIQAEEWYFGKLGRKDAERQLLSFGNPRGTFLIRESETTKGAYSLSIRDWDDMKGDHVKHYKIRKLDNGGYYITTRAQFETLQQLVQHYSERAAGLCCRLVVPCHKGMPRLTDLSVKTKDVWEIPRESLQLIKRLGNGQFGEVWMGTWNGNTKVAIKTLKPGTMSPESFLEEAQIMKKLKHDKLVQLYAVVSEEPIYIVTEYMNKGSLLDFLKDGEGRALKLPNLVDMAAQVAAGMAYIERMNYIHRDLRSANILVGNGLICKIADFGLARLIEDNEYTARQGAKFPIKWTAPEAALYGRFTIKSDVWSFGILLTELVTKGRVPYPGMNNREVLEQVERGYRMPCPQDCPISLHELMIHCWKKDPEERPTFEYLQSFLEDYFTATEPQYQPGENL
UniProt P49840: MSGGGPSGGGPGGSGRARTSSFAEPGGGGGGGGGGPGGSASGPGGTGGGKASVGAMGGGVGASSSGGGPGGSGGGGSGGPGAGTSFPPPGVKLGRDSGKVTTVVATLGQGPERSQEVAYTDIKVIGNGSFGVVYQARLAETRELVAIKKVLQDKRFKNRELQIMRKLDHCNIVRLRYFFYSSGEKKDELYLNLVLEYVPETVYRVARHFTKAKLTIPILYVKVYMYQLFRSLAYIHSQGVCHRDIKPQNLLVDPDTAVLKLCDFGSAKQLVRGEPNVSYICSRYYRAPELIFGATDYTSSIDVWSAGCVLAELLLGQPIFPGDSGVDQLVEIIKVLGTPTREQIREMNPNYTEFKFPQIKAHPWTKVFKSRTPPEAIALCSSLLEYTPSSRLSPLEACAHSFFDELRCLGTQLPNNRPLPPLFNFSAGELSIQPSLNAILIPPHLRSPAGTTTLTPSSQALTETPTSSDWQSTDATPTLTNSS
UniProt P14616: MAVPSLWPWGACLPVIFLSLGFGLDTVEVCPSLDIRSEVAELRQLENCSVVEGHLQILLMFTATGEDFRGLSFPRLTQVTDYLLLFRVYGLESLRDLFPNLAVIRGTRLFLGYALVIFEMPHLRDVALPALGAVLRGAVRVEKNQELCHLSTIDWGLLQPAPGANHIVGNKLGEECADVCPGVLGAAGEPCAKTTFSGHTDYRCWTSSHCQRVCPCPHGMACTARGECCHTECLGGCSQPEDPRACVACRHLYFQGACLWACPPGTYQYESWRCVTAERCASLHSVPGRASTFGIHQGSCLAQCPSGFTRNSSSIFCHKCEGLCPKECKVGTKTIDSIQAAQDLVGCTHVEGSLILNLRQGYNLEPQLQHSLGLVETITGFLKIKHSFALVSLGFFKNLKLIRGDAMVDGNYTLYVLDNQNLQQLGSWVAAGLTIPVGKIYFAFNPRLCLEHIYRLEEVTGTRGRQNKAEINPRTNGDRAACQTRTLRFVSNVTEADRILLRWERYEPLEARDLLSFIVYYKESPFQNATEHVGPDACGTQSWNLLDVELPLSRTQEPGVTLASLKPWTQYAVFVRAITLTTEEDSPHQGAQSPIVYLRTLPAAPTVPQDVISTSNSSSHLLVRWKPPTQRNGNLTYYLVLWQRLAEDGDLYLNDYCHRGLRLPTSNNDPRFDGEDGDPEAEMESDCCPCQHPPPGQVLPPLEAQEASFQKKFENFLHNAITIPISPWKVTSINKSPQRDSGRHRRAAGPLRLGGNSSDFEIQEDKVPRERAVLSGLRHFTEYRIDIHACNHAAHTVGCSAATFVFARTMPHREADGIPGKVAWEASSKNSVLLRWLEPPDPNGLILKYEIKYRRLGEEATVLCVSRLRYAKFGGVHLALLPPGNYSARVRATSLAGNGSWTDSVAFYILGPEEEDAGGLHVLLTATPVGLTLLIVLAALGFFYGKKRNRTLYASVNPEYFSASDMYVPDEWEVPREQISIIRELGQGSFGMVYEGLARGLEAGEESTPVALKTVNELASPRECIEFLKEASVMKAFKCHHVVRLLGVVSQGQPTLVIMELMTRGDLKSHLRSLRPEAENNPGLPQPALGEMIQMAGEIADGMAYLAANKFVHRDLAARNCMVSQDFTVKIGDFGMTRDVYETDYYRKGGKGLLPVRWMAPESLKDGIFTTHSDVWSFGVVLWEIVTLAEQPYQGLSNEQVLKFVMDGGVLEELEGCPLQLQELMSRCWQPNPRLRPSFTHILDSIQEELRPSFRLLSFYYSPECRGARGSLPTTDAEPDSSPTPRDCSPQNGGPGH

Measured: kinase-Nluc reporter destabilization hit call

Cc1cnc(Nc2ccc(OCCN3CCCC3)cc2)nc1Nc1cccc(S(=O)(=O)NC(C)(C)C)c1 [Fedratinib]
inactive: ERN1; 2.5 µM 0 | FGFR1; 2.5 µM 0 | FGFR2; 2.5 µM 0 | FGFR3; 2.5 µM 0 | FGR; 2.5 µM 0 | FLT3; 2.5 µM 0 | FYN; 2.5 µM 0 | GSK3A; 2.5 µM 0 | HER2; 2.5 µM 0 | INSRR; 2.5 µM 0

CNC(=O)c1cc(Oc2ccc(NC(=O)Nc3ccc(Cl)c(C(F)(F)F)c3)cc2)ccn1 [Sorafenib (Tosylate)]
inactive: ERN1; 10 µM 0 | FGFR1; 10 µM 0 | FGFR2; 10 µM 0 | FGFR3; 10 µM 0 | FGR; 10 µM 0 | FLT3; 10 µM 0 | FYN; 10 µM 0 | GSK3A; 10 µM 0 | HER2; 10 µM 0 | INSRR; 10 µM 0

C=CC(=O)N1C[C@@H](Nc2ncnc3[nH]ccc23)CC[C@H]1C [(2R,5S)-Ritlecitinib]
inactive: ERN1; 10 µM 0 | FGFR1; 10 µM 0 | FGFR2; 10 µM 0 | FGFR3; 10 µM 0 | FGR; 10 µM 0 | FLT3; 10 µM 0 | FYN; 10 µM 0 | GSK3A; 10 µM 0 | HER2; 10 µM 0 | INSRR; 10 µM 0

COc1cc(Nc2c(C#N)cnc3cc(OCCCN4CCN(C)CC4)c(OC)cc23)c(Cl)cc1Cl [Bosutinib]
inactive: ERN1; 2.5 µM 0 | FGFR1; 2.5 µM 0 | FGFR2; 2.5 µM 0 | FGFR3; 2.5 µM 0 | FGR; 2.5 µM 0 | FLT3; 2.5 µM 0 | FYN; 2.5 µM 0 | GSK3A; 2.5 µM 0 | HER2; 2.5 µM 0 | INSRR; 2.5 µM 0

3 compounds already listed, arranged by SMILES length, high to low:
Cc1cnc(Nc2ccc(OCCN3CCCC3)cc2)nc1Nc1cccc(S(=O)(=O)NC(C)(C)C)c1 [Fedratinib]
inactive: ERN1; 2.5 µM 0 | FGFR1; 2.5 µM 0 | FGFR2; 2.5 µM 0 | FGFR3; 2.5 µM 0 | FGR; 2.5 µM 0 | FLT3; 2.5 µM 0 | FYN; 2.5 µM 0 | GSK3A; 2.5 µM 0 | HER2; 2.5 µM 0 | INSRR; 2.5 µM 0

CNC(=O)c1cc(Oc2ccc(NC(=O)Nc3ccc(Cl)c(C(F)(F)F)c3)cc2)ccn1 [Sorafenib (Tosylate)]
inactive: ERN1; 10 µM 0 | FGFR1; 10 µM 0 | FGFR2; 10 µM 0 | FGFR3; 10 µM 0 | FGR; 10 µM 0 | FLT3; 10 µM 0 | FYN; 10 µM 0 | GSK3A; 10 µM 0 | HER2; 10 µM 0 | INSRR; 10 µM 0

C=CC(=O)N1C[C@@H](Nc2ncnc3[nH]ccc23)CC[C@H]1C [(2R,5S)-Ritlecitinib]
inactive: ERN1; 10 µM 0 | FGFR1; 10 µM 0 | FGFR2; 10 µM 0 | FGFR3; 10 µM 0 | FGR; 10 µM 0 | FLT3; 10 µM 0 | FYN; 10 µM 0 | GSK3A; 10 µM 0 | HER2; 10 µM 0 | INSRR; 10 µM 0

(continued)

CCCCCC1CC1CC1CC1CCCCCCCC(=O)OC (stereo unspecified)
inactive: ERN1; 10 µM 0 | FGFR1; 10 µM 0 | FGFR2; 10 µM 0 | FGFR3; 10 µM 0 | FGR; 10 µM 0 | FLT3; 10 µM 0 | FYN; 10 µM 0 | GSK3A; 10 µM 0 | HER2; 10 µM 0 | INSRR; 10 µM 0

CCCOc1ccc(C=C2SC(=O)NC2=O)cc1
inactive: ERN1; 10 µM 0 | FGFR1; 10 µM 0 | FGFR2; 10 µM 0 | FGFR3; 10 µM 0 | FGR; 10 µM 0 | FLT3; 10 µM 0 | FYN; 10 µM 0 | GSK3A; 10 µM 0 | HER2; 10 µM 0 | INSRR; 10 µM 0

CC(C)n1nc(-c2cc3cc(O)ccc3[nH]2)c2c(N)ncnc21 [Torkinib]
inactive: ERN1; 2.5 µM 0 | FGFR1; 2.5 µM 0 | FGFR2; 2.5 µM 0 | FGFR3; 2.5 µM 0 | FGR; 2.5 µM 0 | FLT3; 2.5 µM 0 | FYN; 2.5 µM 0 | GSK3A; 2.5 µM 0 | HER2; 2.5 µM 0 | INSRR; 2.5 µM 0

CCOc1nc(NC(=O)Cc2cc(OC)ccc2OC)cc(N)c1C#N [JNK Inhibitor VIII]
inactive: ERN1; 10 µM 0 | FGFR1; 10 µM 0 | FGFR2; 10 µM 0 | FGFR3; 10 µM 0 | FGR; 10 µM 0 | FLT3; 10 µM 0 | FYN; 10 µM 0 | GSK3A; 10 µM 0 | HER2; 10 µM 0 | INSRR; 10 µM 0

C[C@H]1Oc2cc(cnc2N)-c2c(nn(C)c2C#N)CN(C)C(=O)c2ccc(F)cc21 [Lorlatinib]
inactive: ERN1; 10 µM 0 | FGFR1; 10 µM 0 | FGFR2; 10 µM 0 | FGFR3; 10 µM 0 | FGR; 10 µM 0 | FLT3; 10 µM 0 | FYN; 10 µM 0 | GSK3A; 10 µM 0 | HER2; 10 µM 0 | INSRR; 10 µM 0

CN1CCN(c2nc(C3=C(c4c[nH]c5ccccc45)C(=O)NC3=O)c3ccccc3n2)CC1 [Sotrastaurin]
inactive: ERN1; 2.5 µM 0 | FGFR1; 2.5 µM 0 | FGFR2; 2.5 µM 0 | FGFR3; 2.5 µM 0 | FGR; 2.5 µM 0 | FLT3; 2.5 µM 0 | FYN; 2.5 µM 0 | GSK3A; 2.5 µM 0 | HER2; 2.5 µM 0 | INSRR; 2.5 µM 0

CC(C)[C@@](C)(O)[C@@H]1CN(c2nc(-c3[nH]nc4ncccc34)c(F)cc2Cl)CCN1
inactive: ERN1; 10 µM 0 | FGFR1; 10 µM 0 | FGFR2; 10 µM 0 | FGFR3; 10 µM 0 | FGR; 10 µM 0 | FLT3; 10 µM 0 | FYN; 10 µM 0 | GSK3A; 10 µM 0 | HER2; 10 µM 0 | INSRR; 10 µM 0

CCc1cc2c(cc1-c1cnn(CC(=O)N(C)C)c1)C(C)(C)c1[nH]c3cc(C#N)ccc3c1C2=O
inactive: ERN1; 2.5 µM 0 | FGFR1; 2.5 µM 0 | FGFR3; 2.5 µM 0 | FGR; 2.5 µM 0 | FLT3; 2.5 µM 0 | FYN; 2.5 µM 0 | GSK3A; 2.5 µM 0 | HER2; 2.5 µM 0 | INSRR; 2.5 µM 0

C[C@@H]1O[C@@H](Oc2c(-c3ccc(O)c(O)c3)oc3cc(O)cc(O)c3c2=O)[C@H](O)[C@H](O)[C@H]1O [Quercitrin]
inactive: ERN1; 10 µM 0 | FGFR1; 10 µM 0 | FGFR2; 10 µM 0 | FGFR3; 10 µM 0 | FGR; 10 µM 0 | FLT3; 10 µM 0 | FYN; 10 µM 0 | GSK3A; 10 µM 0 | HER2; 10 µM 0 | INSRR; 10 µM 0

O=S(=O)(c1cccc2c(O)nccc12)N1CCCNCC1 [Hydroxyfasudil]
inactive: ERN1; 10 µM 0 | FGFR2; 10 µM 0 | FGFR3; 10 µM 0 | FGR; 10 µM 0 | FLT3; 10 µM 0 | FYN; 10 µM 0 | GSK3A; 10 µM 0 | HER2; 10 µM 0 | INSRR; 10 µM 0

Cc1ccc(Nc2nccc(N(C)c3ccc4c(C)n(C)nc4c3)n2)cc1S(N)(=O)=O [Pazopanib (Hydrochloride)]
inactive: ERN1; 10 µM 0 | FGFR2; 10 µM 0 | FGFR3; 10 µM 0 | FGR; 10 µM 0 | FLT3; 10 µM 0 | GSK3A; 10 µM 0 | HER2; 10 µM 0 | INSRR; 10 µM 0

Source: the supplement of paper PMC12823440, “Inhibitors supercharge kinase turnover through native proteolytic circuits” (Nature, 2025)
